The whole screen tested about 390,000 compounds, of which about 910 (0.23%) were called active. Inconclusive means that the source gave no clear call. Such entries were picked first, then a sample of the others. Calls come from the whole dose curve; as a rule, active = well fitted inhibition curve with a large enough effect; inconclusive = small, poorly fitted or top-dose-only effect; inactive = no such curve, though single readings can be large or run the other way. A potency beside an inconclusive call is a rough fit, not a confirmed value.
What follows are compounds tested against Ubiquitin carboxyl-terminal hydrolase 1 (Homo sapiens) (UniProt O94782) (assay: Inhibitors of USP1/UAF1: Primary Screen). Settings: recombinant USP1/UAF1, Ub-Rhodamine cleavage fluorescence; activity change, negative = inhibition: at 57.1 µM (top of the series).
Outline: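 In this screen, compounds sit with the deubiquitinase complex (1nM) for 15 min at room temperature before Ub-Rho is added at 150nM final. Fluorescence rise is then followed for 6 reads every 60 seconds.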
% is set by controls: 0 for no effect and ±100 for the full control effect; potency is the fitted concentration of half-maximal effect.
Note: nearly all actives have a fitted effect of over 60% in size.

By UniProt entry, the sequences of proteins in these tests, tags left out. Where a name states a change or a piece, a line headed by the entry shows the natural chain unless it says otherwise.
UniProt O94782: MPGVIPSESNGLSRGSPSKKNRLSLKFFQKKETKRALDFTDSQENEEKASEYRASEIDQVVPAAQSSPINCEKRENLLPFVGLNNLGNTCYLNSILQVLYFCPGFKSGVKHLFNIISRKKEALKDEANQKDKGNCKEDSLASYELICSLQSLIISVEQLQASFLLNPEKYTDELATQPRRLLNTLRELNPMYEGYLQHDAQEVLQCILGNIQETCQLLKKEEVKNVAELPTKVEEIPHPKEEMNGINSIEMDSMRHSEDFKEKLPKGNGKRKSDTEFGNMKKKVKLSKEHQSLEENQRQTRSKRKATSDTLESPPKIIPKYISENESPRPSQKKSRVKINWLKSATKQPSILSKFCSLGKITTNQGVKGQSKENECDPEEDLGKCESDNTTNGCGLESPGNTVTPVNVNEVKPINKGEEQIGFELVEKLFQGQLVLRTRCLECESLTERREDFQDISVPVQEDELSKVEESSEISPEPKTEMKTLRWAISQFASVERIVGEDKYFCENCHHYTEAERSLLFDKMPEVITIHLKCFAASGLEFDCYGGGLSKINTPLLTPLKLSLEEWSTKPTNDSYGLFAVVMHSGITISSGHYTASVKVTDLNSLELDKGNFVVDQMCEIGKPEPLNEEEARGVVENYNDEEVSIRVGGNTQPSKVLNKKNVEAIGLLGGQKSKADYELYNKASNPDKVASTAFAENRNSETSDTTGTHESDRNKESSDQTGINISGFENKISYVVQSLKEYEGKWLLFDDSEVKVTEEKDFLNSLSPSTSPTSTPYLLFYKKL

SMILES	Potency	activity change, negative = inhibition
COc1ccc(-c2coc(CCC(=O)N3CCN(c4cc(C)ccc4C)CC3)n2)cc1	inconclusive: 44.7 µM [inhibitor, partial curve, poor fit]	–
CCc1ccccc1NC(=O)Cn1ccn(Cc2ccccc2)c(=O)c1=O	–	inactive: -4.83%
O=C(O)c1ccc(Cl)cc1Nc1nc2cc(Cl)ccc2o1	inconclusive: 39.8 µM [inhibitor, partial curve, poor fit]	–
CCc1nnc(NS(=O)(=O)c2ccc(NC(=O)Nc3ccc(OC)cc3)cc2)s1	inconclusive: 31.6 µM [inhibitor, single point]	–
COc1ccc(NC(=O)c2ccco2)cc1NC(=O)c1c(OC)cccc1OC	inactive	–
Cc1ccc([C@H]2N[C@]3(CCCN(Cc4ccc(Cl)cc4)C3=O)[C@H]3C(=O)N(C)C(=O)[C@@H]23)cc1	inconclusive: 0.282 µM [inhibitor, full curve, poor fit]	–
CC(C)c1ccc2occ(CC(=O)N(Cc3ccc(F)cc3)C3CCS(=O)(=O)C3)c2c1 (centres undefined)	inconclusive: 2 µM [inhibitor, partial curve]	–
COc1ccc(CCNC(=O)c2ccc3c(c2)ncn3-c2ccc(C(C)C)cc2)cc1OC	inconclusive: 50.1 µM [inhibitor, partial curve, poor fit]	–
CCOC(=O)c1ccccc1NC(=O)CN(c1ccccc1OC)S(C)(=O)=O	inconclusive: 10 µM [inhibitor, partial curve]	–
O=C(COc1ccc(-n2cnnn2)cc1)Nc1ccc(F)c(Cl)c1	inconclusive: 31.6 µM [inhibitor, partial curve]	–
COc1ccc(NS(=O)(=O)c2ccc3[nH]c4c(c3c2)CCCCC4)cc1	inconclusive: 44.7 µM [inhibitor, partial curve, poor fit]	–
Cc1ccc(NC(=O)Nc2c(C)n(C)n(-c3ccccc3)c2=O)cc1C	–	inactive: -14.7%
COc1cccc(NC(=O)Cn2cc(C(=O)c3ccco3)c3ccccc32)c1	inconclusive: 0.891 µM [inhibitor, full curve, poor fit]	–
CC[C@H](CO)Oc1cc(NCc2ccc(Cl)c(Cl)c2)c2ncn(C(C)C)c2c1	inconclusive: 7.94 µM [inhibitor, partial curve]	–
O=C(CCCc1c[nH]c2ccccc12)Nc1ccc2ccccc2c1	–	inactive: -1.51%
COc1ccc(/C=N/N2C(=O)C3C4C=CC(C4)C3C2=O)cc1[N+](=O)[O-] (centres undefined)	inconclusive: 0.631 µM [inhibitor, full curve, poor fit]	–
CC(NC(=O)c1ccnn1C)C1CCCO1 (centres undefined)	–	inactive: -0.715%
COc1cccc(Oc2cc(NN3CCCCC3)c([N+](=O)[O-])cc2[N+](=O)[O-])c1OC	inconclusive: 0.251 µM [inhibitor, full curve]	–
CCN(CC)S(=O)(=O)c1ccc2c(c1)N(CC(=O)NCCCN1CCN(c3cc(Cl)ccc3C)CC1)C(=O)CO2	inconclusive: 0.251 µM [inhibitor, full curve, poor fit]	–
Cc1ccc(SCc2[nH]nc3c2C(c2cccnc2)C(C#N)=C(N)O3)cc1 (centres undefined)	inconclusive: 44.7 µM [inhibitor, single point]	–
CCCCCn1c(=O)[nH]c2cc(C(=O)NCc3ccccc3)ccc2c1=O	inconclusive: 15.8 µM [inhibitor, partial curve]	–
CCCOc1ccc(NC(=O)C(=O)NCCCN2CCOCC2)cc1	inconclusive: 0.631 µM [inhibitor, full curve, poor fit]	–

SMILES	Potency	activity change, negative = inhibition
CCOc1ccc(NC(=O)CCc2c(C)nc3cc(-c4ccc(Cl)cc4)nn3c2C)cc1	inconclusive: 10 µM [inhibitor, full curve, poor fit]	–
Oc1ccc(NCc2ccc(OCc3ccccc3)cc2)cc1	active: 3.16 µM	–
C=CCSc1nc2[nH]ncc2c(=O)[nH]1	–	inactive: -8.73%
Cn1c(-c2ccc(F)cc2)cc2onc(-c3c(F)cccc3Cl)c2c1=O	inconclusive: 50.1 µM [inhibitor, partial curve, poor fit]	–
CCC(=O)N1CCc2cc(Br)cc(S(=O)(=O)CCC(=O)Nc3cccc(C)c3C)c21	inconclusive: 3.55 µM [inhibitor, partial curve]	–
N#Cc1c(N2CCCCC2)nc(N2CCCCC2)c2c1CCN(Cc1ccccc1)C2	inconclusive: 39.8 µM [inhibitor, single point]	–
COc1ccc(CNCc2c(C(=O)O)n(Cc3ccc(F)cc3)c3cc(C)ccc23)cc1OC	inconclusive: 89.1 µM [inhibitor, partial curve, poor fit]	–
Cc1cccc2c(N)c3c(nc12)N(C)CC3	–	inactive: -14.4%
COc1ccc(C(=O)/C=C/c2cn(CC(O)CN3CCOCC3)c3ccccc23)cc1 (centres undefined)	inconclusive: 39.8 µM [inhibitor, partial curve, poor fit]	–
CCOC(=O)Nc1sc2c(c1C(N)=O)CCC(C)C2 (centres undefined)	–	inactive: -17.4%
O=C(O)CC1S/C(=N/N=C/c2ccc(-c3ccc(Cl)cc3[N+](=O)[O-])o2)NC1=O (centres undefined)	inconclusive: 15.8 µM [inhibitor, partial curve, poor fit]	–
CCOC(=O)c1ccc(NC(=O)Cn2ncc(Cl)c(Cl)c2=O)cc1	–	inactive: -27.9%
Cc1ccc(SC2=C(N(C)C)C(=O)c3ccccc3C2=O)cc1	inconclusive: 28.2 µM [inhibitor, single point]	–
COc1ccc(NC(=O)CN2CCC(C)CC2)c([N+](=O)[O-])c1	inconclusive: 0.126 µM [inhibitor, full curve, poor fit]	–
Cc1ccc(NC(=O)CCc2ccccc2)cc1C	inconclusive: 5.01 µM [inhibitor, partial curve]	–
O=C(O)c1cc(-c2ccc(-c3c(-c4ccc5c(c4)OCO5)noc3-c3ccsc3)cc2)nc2ccccc12	inconclusive: 44.7 µM [inhibitor, partial curve]	–
N#Cc1ccccc1Cn1cnc2nc3c(cc2c1=O)CCCC3	inconclusive: 5.01 µM [inhibitor, partial curve]	–
CCc1nc(C)cn1S(=O)(=O)c1ccc(Cl)c(Cl)c1OC	inconclusive: 44.7 µM [inhibitor, partial curve, poor fit]	–
O=C(CSc1nc(=O)[nH]c2c1CCCC2)NCc1ccc(F)cc1	inconclusive: 7.94 µM [inhibitor, full curve, poor fit]	–
CCOC(=O)c1c(C)c(-c2ccccc2)n(CC(=O)NCCc2cccc(C)c2)c1C	inconclusive: 17.8 µM [inhibitor, partial curve, poor fit]	–
CCNC(=O)c1c(NC(=O)c2nc(S(=O)(=O)CC)ncc2Cl)sc2c1CCCC2	–	inactive: -21.8%
CS(=O)(=O)Nc1nnc(C2CCCC2)s1	inconclusive: 35.5 µM [inhibitor, partial curve, poor fit]	–

Entries shown so far with a nitro group on carbon, in the order listed:
SMILES	Potency	activity change, negative = inhibition
COc1ccc(/C=N/N2C(=O)C3C4C=CC(C4)C3C2=O)cc1[N+](=O)[O-] (centres undefined)	inconclusive: 0.631 µM [inhibitor, full curve, poor fit]	–
COc1cccc(Oc2cc(NN3CCCCC3)c([N+](=O)[O-])cc2[N+](=O)[O-])c1OC	inconclusive: 0.251 µM [inhibitor, full curve]	–
O=C(O)CC1S/C(=N/N=C/c2ccc(-c3ccc(Cl)cc3[N+](=O)[O-])o2)NC1=O (centres undefined)	inconclusive: 15.8 µM [inhibitor, partial curve, poor fit]	–
COc1ccc(NC(=O)CN2CCC(C)CC2)c([N+](=O)[O-])c1	inconclusive: 0.126 µM [inhibitor, full curve, poor fit]	–

(continued)

SMILES	Potency	activity change, negative = inhibition
CSc1ccc(CCNC(=O)c2cc3cc(S(=O)(=O)N4CCCCC4)ccc3n2C)cc1	inconclusive: 5.62 µM [inhibitor, full curve]	–
COc1ccc(CN(Cc2ccccn2)C(=O)CN2C(=O)COc3ccccc32)cc1	–	inactive: 7.39%
O=C(COc1ccc2ccccc2c1)NCCn1ccc2ccccc21	inconclusive: 7.94 µM [inhibitor, partial curve, poor fit]	–
O=C(c1ccccc1Cl)N(C(=O)c1ccccc1Cl)c1nccc(-c2cccs2)n1	–	inactive: -16.9%
O=C(COC(=O)C1CC1)Nc1ccc(OC(F)F)cc1	–	inactive: -5.07%
C=CCN1CC(C(=O)N2CCC(Cc3ccc(Cl)cc3)(C(=O)OCC)CC2)CC1=O (centres undefined)	–	inactive: -19.6%
COc1cccc(/C=C/C(=O)N2CCN(S(=O)(=O)c3ccccc3)CC2)c1	inconclusive: 44.7 µM [inhibitor, partial curve, poor fit]	–
CCc1ccccc1NS(=O)(=O)c1ccc2c(c1)CCCN2C(=O)C1CCC1	–	inactive: 2.11%
COc1ccc(Cc2c(Cl)ncnc2Cl)cc1	–	inactive: -15.9%
CCOC(=O)c1cc2ccccc2n1CC(=O)c1ccccc1	inconclusive: 251 µM [inhibitor, partial curve, poor fit]	–
N#CC12CCCCC1CC1CCCCC1(C#N)N2Cc1cccnc1 (centres undefined)	inconclusive: 31.6 µM [inhibitor, partial curve]	–
CC(=O)NNC(=O)CSc1nnc(-c2ccccc2)c(-c2ccccc2)n1	inconclusive: 50.1 µM [inhibitor, partial curve]	–
O=C1CN(N=Cc2ccco2)C(=O)N1	inconclusive: 63.1 µM [inhibitor, single point]	–
COc1cc(C2SCCS2)cc(Br)c1Oc1ncccc1[N+](=O)[O-]	inconclusive: 50.1 µM [inhibitor, partial curve, poor fit]	–
CCOc1cc(CNC(=O)C2CCN(c3nc4ccccc4[nH]3)CC2)cc(OCC)c1OCC	inconclusive: 0.447 µM [inhibitor, full curve]	–
Cc1c(C)c2cc3c(c(C)c2oc1=O)OCN(CCc1ccccc1)C3	inconclusive: 0.708 µM [inhibitor, full curve]	–
O=C(NCc1ccc(Cl)cc1)C1CC(O)CN1S(=O)(=O)c1ccc(Cl)cc1 (centres undefined)	inconclusive: 39.8 µM [inhibitor, single point]	–
CCCn1cc(S(=O)(=O)c2ccc(C)c(C)c2)c(=O)c2cc(F)c(N3CCC(C)CC3)cc21	inconclusive: 8.91 µM [inhibitor, single point]	–
Cc1ccc(S(=O)(=O)N2CCN(S(=O)(=O)N3CCOCC3)CC2)c(C)c1	inconclusive: 0.891 µM [inhibitor, full curve, poor fit]	–
CCOC(=O)C1CCN(c2c(NCCCN(CC)c3ccccc3)c(=O)c2=O)CC1	–	inactive: 9.16%
